Reference: PubChem BioAssay AID1224827 (NIAID, 2016)

- Screen: 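Retest primary hits on a TNF reporter with six siRNAs per gene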 (follow-up of hits)
- System: RAW264.7 G9 mouse macrophage reporter clone
- Reagent: single siRNA against mouse genes, 100 nM siRNA
- Time to read-out: siRNA for 2 days, then LPS about 16 h
- Challenge: bacterial lipopolysaccharide (LPS), 10 ng/ml, cells fixed after overnight (about 16 h) stimulation
- Measurement: 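TNF promoter reporter red fluorescence in nuclei, background subtracted, normalised per plate and to non-targeting control siRNA, as z-scores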
- Scale: TNF reporter z-score, mean and TNF reporter z-score: higher = stronger Tnf promoter reporter signal; gene median z, three same-vendor siRNAs: higher = stronger Tnf reporter signal for the gene
- Call rule: 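An siRNA is called active when its mean z-score over replicates is at least +2 or at most -2; control wells get no call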
This is a random part of about 3,800 reagents. Over the whole deposit, about 2,200 (57%) were called active. 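Active means a strong reporter change in either direction; calls are per siRNA, not per gene; qiagen siRNAs gave weaker effects.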 Reagents against one gene are numbered here.

gene symbol	reagent no.	TNF reporter z-score, mean	gene median z, three same-vendor siRNAs	TNF reporter z-score, repeat 1	TNF reporter z-score, repeat 2	outcome
Pold3	1	-0.291	-1.71	-1.32	0.733	inactive
Pold3	2	-1.86	-1.71	-2.34	-1.38	inactive
Pold3	3	-2.39	-1.71	-2.73	-2.05	active
Pold3	4	2.78	1.34	4.07	1.49	active
Pold3	5	1.23	1.34	1.75	0.713	inactive
Pold3	6	0.684	1.34	1.2	0.165	inactive
Lrrc14	1	3.66	-4.42	3.43	3.89	active
Lrrc14	2	-4.94	-4.42	-5.96	-3.93	active
Lrrc14	3	-5.27	-4.42	-4.92	-5.62	active
Lrrc14	4	1.78	-0.184	1.71	1.85	inactive
Lrrc14	5	-0.61	-0.184	-0.514	-0.706	inactive
Lrrc14	6	-0.727	-0.184	0.147	-1.6	inactive
Zmat4	1	2.36	0.748	2.68	2.04	active
Zmat4	2	0.748	0.748	-0.173	1.67	inactive
Zmat4	3	-4.62	0.748	-4.8	-4.45	active
Zmat4	4	5.13	1.56	7.84	2.41	active
Zmat4	5	3.37	1.56	6.02	0.719	active
Zmat4	6	-0.814	1.56	0.48	-2.11	inactive
Aldh1a2	1	-3.43	-3.77	-3.84	-3.03	active
Aldh1a2	2	-3.64	-3.77	-3.58	-3.7	active
Aldh1a2	3	-5.21	-3.77	-5.11	-5.31	active
Aldh1a2	4	1.66	0.548	3.22	0.105	inactive
Aldh1a2	5	1.6	0.548	3.66	-0.463	inactive
Aldh1a2	6	0.113	0.548	0.991	-0.765	inactive
Elf3	1	2.72	-2.09	2.4	3.05	active
Elf3	2	-2.93	-2.09	-2.08	-3.77	active
Elf3	3	-2.68	-2.09	-3.25	-2.1	active
Elf3	4	1.08	-0.711	2.76	-0.59	inactive
Elf3	5	-2.06	-0.711	-3.28	-0.831	active
Elf3	6	-1.47	-0.711	-0.102	-2.84	inactive

The list goes on (5 carried over from the part before).
gene symbol	reagent no.	TNF reporter z-score, mean	gene median z, three same-vendor siRNAs	TNF reporter z-score, repeat 1	TNF reporter z-score, repeat 2	outcome
Elf3	2	-2.93	-2.09	-2.08	-3.77	active
Elf3	3	-2.68	-2.09	-3.25	-2.1	active
Elf3	4	1.08	-0.711	2.76	-0.59	inactive
Elf3	5	-2.06	-0.711	-3.28	-0.831	active
Elf3	6	-1.47	-0.711	-0.102	-2.84	inactive
Ufd1	1	-0.397	-2.24	-1.2	0.409	inactive
Ufd1	2	-2.26	-2.24	-2.67	-1.84	active
Ufd1	3	-2.73	-2.24	-2.64	-2.82	active
Ufd1	4	0.981	-0.755	1.76	0.204	inactive
Ufd1	5	-0.755	-0.755	-1.1	-0.409	inactive
Ufd1	6	-1.9	-0.755	-1.68	-2.12	inactive
Zdhhc9	1	-2.21	-4.27	-2.47	-1.94	active
Zdhhc9	2	-4.38	-4.27	-4.84	-3.92	active
Zdhhc9	3	-4.67	-4.27	-4.72	-4.61	active
Zdhhc9	4	4.03	2.21	7.11	0.952	active
Zdhhc9	5	2.02	2.21	3.89	0.148	active
Zdhhc9	6	1.33	2.21	3.46	-0.796	inactive
Fas	1	-1.17	-2.26	-2.67	0.32	inactive
Fas	2	-1.61	-2.26	-1.86	-1.37	inactive
Fas	3	-3.05	-2.26	-3.43	-2.68	active
Fas	4	-1.46	-1.93	-1.49	-1.44	inactive
Fas	5	-1.67	-1.93	-0.969	-2.37	inactive
Fas	6	-2.89	-1.93	-3.1	-2.69	active
Or5d36	1	-2.18	-4.09	-3.42	-0.952	active
Or5d36	2	-4.31	-4.09	-4.08	-4.53	active
Or5d36	3	-4.48	-4.09	-4.87	-4.1	active
Or5d36	4	3.94	-0.237	8.8	-0.915	active
Or5d36	5	2.02	-0.237	3.59	0.442	active
Or5d36	6	-3.52	-0.237	-4.76	-2.28	active
Cdh6	1	-3.22	-3.69	-3.6	-2.85	active
Cdh6	2	-3.56	-3.69	-3.35	-3.78	active
Cdh6	3	-5.55	-3.69	-4.93	-6.17	active
